The source of these data is article PMC5511134.

Sequences of proteins named here, by UniProt entry; tags and fusion partners are left off. Residues count along the entry.
UniProt Q91ZX7, residues 20-4545: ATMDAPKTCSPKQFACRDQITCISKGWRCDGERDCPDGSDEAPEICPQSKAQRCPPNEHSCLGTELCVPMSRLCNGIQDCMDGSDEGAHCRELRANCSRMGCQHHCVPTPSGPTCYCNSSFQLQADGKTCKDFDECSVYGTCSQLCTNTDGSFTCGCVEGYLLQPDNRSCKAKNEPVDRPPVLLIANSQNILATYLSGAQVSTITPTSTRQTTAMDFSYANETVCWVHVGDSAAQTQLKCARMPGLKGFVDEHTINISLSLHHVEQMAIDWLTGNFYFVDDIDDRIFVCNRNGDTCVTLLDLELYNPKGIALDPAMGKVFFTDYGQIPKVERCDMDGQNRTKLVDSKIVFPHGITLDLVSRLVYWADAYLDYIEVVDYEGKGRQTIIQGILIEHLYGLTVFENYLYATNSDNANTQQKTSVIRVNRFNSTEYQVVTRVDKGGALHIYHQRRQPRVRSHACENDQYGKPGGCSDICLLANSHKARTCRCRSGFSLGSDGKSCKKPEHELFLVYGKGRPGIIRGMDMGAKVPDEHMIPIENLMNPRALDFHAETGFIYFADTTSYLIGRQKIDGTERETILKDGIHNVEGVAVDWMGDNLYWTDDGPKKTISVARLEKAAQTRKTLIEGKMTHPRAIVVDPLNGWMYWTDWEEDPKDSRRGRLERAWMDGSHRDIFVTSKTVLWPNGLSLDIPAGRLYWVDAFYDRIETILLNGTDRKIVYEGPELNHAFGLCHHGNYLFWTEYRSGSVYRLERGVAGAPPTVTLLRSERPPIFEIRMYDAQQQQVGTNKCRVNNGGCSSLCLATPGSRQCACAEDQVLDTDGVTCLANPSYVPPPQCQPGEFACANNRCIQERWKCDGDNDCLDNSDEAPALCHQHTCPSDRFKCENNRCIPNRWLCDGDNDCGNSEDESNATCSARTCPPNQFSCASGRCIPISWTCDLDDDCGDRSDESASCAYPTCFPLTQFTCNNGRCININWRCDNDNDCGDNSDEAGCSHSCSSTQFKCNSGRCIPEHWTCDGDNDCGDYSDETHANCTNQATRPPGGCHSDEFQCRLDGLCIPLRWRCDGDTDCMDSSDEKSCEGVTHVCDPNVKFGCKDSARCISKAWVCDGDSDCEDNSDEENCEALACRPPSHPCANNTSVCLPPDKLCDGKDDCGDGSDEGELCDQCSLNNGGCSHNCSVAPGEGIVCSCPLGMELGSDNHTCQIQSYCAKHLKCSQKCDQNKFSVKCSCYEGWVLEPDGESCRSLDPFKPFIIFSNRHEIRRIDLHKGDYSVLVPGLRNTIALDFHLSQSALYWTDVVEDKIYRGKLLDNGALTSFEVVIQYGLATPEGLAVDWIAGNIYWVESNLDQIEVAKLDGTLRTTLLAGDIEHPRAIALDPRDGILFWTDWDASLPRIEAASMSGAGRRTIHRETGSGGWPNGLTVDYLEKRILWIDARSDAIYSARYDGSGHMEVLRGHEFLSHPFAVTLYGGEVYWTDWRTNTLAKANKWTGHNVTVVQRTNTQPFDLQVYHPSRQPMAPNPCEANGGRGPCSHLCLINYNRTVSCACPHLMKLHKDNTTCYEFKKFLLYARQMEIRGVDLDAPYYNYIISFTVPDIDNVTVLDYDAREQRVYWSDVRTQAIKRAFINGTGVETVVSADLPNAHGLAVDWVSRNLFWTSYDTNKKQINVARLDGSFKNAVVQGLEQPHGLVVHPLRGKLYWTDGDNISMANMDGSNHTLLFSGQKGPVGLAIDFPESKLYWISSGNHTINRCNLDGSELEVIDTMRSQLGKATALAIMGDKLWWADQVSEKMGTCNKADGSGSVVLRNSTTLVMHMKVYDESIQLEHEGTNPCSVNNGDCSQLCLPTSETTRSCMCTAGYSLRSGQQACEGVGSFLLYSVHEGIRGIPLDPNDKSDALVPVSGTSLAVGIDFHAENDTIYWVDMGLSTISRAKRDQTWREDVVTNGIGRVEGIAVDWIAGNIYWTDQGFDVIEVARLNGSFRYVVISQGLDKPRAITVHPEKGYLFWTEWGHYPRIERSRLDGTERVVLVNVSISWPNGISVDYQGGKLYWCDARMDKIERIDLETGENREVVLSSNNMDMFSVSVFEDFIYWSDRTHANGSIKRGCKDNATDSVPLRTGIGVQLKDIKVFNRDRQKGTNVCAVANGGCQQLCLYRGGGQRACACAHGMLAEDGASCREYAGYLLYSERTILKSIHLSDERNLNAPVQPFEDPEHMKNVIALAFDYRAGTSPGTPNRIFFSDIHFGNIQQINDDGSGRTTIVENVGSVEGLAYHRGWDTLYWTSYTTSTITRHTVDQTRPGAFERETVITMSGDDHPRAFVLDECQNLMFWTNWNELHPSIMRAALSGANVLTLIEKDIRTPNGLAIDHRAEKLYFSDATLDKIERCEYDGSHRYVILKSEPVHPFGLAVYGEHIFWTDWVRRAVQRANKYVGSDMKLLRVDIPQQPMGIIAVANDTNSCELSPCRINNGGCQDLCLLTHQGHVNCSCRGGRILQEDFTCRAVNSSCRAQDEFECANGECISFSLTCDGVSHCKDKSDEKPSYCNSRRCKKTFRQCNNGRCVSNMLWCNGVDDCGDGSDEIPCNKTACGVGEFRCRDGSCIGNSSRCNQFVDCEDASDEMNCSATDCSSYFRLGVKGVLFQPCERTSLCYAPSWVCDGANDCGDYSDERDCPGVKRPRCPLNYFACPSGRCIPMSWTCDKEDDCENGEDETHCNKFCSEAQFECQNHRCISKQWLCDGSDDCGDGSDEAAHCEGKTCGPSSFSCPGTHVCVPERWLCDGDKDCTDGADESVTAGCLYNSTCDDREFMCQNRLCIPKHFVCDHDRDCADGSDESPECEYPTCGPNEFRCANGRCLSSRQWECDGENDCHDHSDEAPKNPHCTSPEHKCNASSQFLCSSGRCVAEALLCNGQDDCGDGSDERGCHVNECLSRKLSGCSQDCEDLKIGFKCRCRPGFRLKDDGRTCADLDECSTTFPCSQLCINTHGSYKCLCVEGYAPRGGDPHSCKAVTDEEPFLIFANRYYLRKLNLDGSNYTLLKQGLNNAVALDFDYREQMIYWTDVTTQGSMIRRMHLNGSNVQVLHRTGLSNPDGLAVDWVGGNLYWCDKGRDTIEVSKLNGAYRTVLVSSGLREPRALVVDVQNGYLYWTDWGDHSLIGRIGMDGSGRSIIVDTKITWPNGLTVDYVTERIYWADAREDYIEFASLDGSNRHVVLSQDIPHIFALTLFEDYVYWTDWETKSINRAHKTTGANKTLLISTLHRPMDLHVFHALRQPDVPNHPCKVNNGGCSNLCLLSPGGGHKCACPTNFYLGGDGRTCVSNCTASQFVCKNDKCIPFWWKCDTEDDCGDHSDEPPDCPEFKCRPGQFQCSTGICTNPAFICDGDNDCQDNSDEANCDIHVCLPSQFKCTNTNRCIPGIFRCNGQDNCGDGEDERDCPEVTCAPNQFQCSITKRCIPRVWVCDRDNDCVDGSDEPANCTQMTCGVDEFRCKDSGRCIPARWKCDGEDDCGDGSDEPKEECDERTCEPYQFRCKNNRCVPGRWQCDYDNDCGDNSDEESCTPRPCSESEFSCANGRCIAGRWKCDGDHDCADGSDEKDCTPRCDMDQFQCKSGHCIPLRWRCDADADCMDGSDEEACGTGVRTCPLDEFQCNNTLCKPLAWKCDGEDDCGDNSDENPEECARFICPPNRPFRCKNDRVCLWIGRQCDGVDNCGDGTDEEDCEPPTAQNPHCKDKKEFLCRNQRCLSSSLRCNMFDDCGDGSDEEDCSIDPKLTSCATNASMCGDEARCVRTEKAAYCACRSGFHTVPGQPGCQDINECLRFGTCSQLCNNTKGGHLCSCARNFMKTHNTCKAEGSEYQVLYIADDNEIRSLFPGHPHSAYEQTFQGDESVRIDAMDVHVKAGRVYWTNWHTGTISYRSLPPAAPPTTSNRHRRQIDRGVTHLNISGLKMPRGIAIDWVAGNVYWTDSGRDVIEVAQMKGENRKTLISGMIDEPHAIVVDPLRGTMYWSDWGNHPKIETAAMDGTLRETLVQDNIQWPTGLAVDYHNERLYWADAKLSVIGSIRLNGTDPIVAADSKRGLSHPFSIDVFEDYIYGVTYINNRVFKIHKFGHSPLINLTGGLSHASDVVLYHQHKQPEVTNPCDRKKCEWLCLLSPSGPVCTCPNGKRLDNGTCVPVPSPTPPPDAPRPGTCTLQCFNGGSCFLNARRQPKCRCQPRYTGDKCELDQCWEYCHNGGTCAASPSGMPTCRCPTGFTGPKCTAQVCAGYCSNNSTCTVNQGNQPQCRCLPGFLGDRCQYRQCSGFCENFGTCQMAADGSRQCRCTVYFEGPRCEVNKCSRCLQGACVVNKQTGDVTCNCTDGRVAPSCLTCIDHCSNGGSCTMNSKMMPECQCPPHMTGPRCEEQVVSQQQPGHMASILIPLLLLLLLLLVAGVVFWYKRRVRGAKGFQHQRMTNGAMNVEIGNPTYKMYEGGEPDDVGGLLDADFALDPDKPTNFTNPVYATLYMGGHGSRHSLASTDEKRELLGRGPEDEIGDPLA
UniProt P30533, residues 35-357: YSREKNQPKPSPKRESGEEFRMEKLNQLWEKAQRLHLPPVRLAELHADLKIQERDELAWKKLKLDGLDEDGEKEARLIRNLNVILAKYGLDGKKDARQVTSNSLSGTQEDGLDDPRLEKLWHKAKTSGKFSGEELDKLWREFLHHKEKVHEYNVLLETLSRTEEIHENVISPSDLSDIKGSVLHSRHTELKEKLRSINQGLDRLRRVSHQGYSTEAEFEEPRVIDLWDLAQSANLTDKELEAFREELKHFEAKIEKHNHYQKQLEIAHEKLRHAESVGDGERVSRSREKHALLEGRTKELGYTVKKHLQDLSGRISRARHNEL

This assay concerns the target low-density lipoprotein receptor-related protein-1 (LRP-1) on mouse cortical neurons (mouse (endogenous in cortical neurons)) (UniProt Q91ZX7). The assay can be described thus: fluorescence of ligand bound to the cell surface (released by pronase, spectrofluorimetry); mouse cortical neurons incubated at 4 °C with 5 nM eFluor-conjugated TIMP-1 or mutants, with or without 500 nM RAP or 30 µg/mL LRP-1 blocking antibodies R2629; washed, surface-digested with 0.1% pronase, fluorescence of the supernatant; only the binder purified.

No constants are given. Whether binding was seen depends on the method and setting. Some results given as binding are weak or reduced against the parent protein; the word gives no strength.

Consider “Recombinant RAP (from UniProt P30533 35-357)”, for which the binding entry was “binds”.
